Experimental data from article PMC9138040.
These are yes or no findings as the source states them, for the method shown. Binding seen in cells or lysates may run through a third protein. Some entries that bind do so weakly or less than the wild type.

Chains of the proteins cited; added tags and fusions are not shown.
UniProt F1M707: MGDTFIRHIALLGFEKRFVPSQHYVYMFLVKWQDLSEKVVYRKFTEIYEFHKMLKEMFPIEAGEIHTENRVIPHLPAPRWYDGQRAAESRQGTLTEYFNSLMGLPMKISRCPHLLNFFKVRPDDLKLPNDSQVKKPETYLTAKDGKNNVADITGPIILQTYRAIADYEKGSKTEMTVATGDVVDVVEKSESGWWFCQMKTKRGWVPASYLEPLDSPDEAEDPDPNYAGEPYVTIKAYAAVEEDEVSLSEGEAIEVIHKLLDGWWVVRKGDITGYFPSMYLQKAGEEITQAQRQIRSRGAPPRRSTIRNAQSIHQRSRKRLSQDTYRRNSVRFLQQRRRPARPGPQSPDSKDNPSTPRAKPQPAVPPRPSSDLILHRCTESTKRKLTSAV

Molecular target: T1, TNFR1 (rat (endogenous in RMCs)) (UniProt P22934)
T1 sequence: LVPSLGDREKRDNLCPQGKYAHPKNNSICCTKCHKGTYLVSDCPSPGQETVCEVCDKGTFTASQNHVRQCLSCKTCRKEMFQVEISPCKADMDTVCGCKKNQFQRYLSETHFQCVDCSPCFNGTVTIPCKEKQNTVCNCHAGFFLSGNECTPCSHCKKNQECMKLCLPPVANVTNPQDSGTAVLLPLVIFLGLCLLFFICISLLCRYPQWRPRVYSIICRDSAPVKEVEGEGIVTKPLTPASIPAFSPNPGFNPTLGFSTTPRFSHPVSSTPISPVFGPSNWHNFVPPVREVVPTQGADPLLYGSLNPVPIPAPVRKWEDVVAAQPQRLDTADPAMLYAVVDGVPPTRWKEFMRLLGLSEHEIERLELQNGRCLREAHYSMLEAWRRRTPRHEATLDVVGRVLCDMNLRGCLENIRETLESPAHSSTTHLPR
Test: co-IP; whole-cell lysate (1 mg) of RMCs stimulated with TNF-α for different periods; 2 µg anti-TNFR1 antibody at 4 °C for 24 h, protein A-agarose magnetic beads; Western blotting for TNFR1, Rac1, p47phox

- binding: binds
Substance: p47^phox (from UniProt F1M707 1-389)
